From patent US20250320268A1 (SHATTUCK LABS, published 2025)
These are yes or no findings as the source states them, for the method shown. Some entries that bind do so weakly or less than the wild type. Tags and fused reporters may be left off the sequences shown.

Legend:
recombinant mouse CD47 [1] = biological target: T1, recombinant mouse CD47 (mouse, UniProt Q61735 19-140, limits assumed); experiment: dual functional ELISA (FIG. 9E)
T1 construct: also called mCD47-Fc
T1 sequence (looked up): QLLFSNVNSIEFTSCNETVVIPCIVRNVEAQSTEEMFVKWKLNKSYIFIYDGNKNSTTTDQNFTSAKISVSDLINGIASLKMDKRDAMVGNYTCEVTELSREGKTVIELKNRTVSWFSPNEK

[2] = biological target: T2, recombinant mouse CD40 (mouse) (UniProt P27512); experiment: dual functional ELISA (FIG. 9E)
T2 sequence (looked up): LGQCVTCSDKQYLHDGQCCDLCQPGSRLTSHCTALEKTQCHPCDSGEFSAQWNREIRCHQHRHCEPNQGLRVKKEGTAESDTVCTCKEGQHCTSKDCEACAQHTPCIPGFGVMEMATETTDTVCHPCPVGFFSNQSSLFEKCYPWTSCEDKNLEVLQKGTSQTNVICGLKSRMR

recombinant mouse CD47 [3] = biological target: T1, recombinant mouse CD47; experiment: dual functional ELISA (legend of FIG. 9E)
[4] = biological target: T2, recombinant mouse CD40 (mouse); experiment: dual functional ELISA (legend of FIG. 9E)
[5] = biological target: T2, recombinant mouse CD40 (mouse); experiment: dual ELISA: coat mCD47-Fc, detect mCD40-His, tertiary anti-his-HRP

Measured: binding

B1: murine SIRPα-Fc-CD40L chimeric protein surrogate (Fc fusion)
chain: KELKVTQPEKSVSVAAGDSTVLNCTLTSLLPVGPIRWYRGVGPSRLLIYSFAGEYVPRIRNVSDTTKRNNMDFSIRISNVTPADAGIYYCVKFQKGSSEPDTEIQSGGGTEVYVLAKPSPPEVSGPADRGIPDQKVNFTCKSHGFSPRNITLKWFKDGQELHPLETTVNPSGKNVSYNISSTVRVVLNSMDVNSKVICEVAHITLDRSPLRGIANLSNFIRVSPTVKVTQQSPTSMNQVNLTCRAERFYPEDLQLIWLENGNVSRNDTPKNLTKNTDGTYNYTSLFLVNSSAHREDVVFTCQVKHDQQPAITRNHTVLGFAHSSDQGSMQTFPDNNATHNWNVPRDCGCKPCICTVPEVSSVFIFPPKPKDVLTITLTPKVTCVVVDISKDDPEVQFSWFVDDVEVHTAQTQPREEQFNSTFRSVSELPIMHQDWLNGKEFKCRVNSAAFPAPIEKTISKTKGRPKAPQVYTIPPPKEQMAKDKVSLTCMITDFFPEDITVEWQWNGQPAENYKNTQPIMNTNGSYFVYSKLNVQKSNWEAGNTFTCSVLHEGLHNHHTEKSLSHSPGKHRRLDKVEEEVNLHEDFVFIKKLKRCNKGEGSLSLLNCEEMRRQFEDLVKDITLNKEEKKENSFEMQRGDEDPQIAAHVVSEANSNAASVLQWAKKGYYTMKSNLVMLENGKQLTVKREGLYYVYTQVTFCSNREPSSQRPFIVGLWLKPSSGSERILLKAANTHSSSQLCEQQSVHLGGVFELQAGASVFVNVTEASQVIHRVGFSSFGLLKL
notes: also called mSIRPα-Fc-CD40L; mouse SIRPα-Fc-CD40L
binds: all assays above
